In publication PMC10135648:
These are yes or no findings as the source states them, for the method shown. In cells and extracts the contact can be indirect. Some results given as binding are weak or reduced against the parent protein; the word gives no strength.

Sequences of proteins named here, by UniProt entry; tags and fusion partners are left off.
UniProt P08050: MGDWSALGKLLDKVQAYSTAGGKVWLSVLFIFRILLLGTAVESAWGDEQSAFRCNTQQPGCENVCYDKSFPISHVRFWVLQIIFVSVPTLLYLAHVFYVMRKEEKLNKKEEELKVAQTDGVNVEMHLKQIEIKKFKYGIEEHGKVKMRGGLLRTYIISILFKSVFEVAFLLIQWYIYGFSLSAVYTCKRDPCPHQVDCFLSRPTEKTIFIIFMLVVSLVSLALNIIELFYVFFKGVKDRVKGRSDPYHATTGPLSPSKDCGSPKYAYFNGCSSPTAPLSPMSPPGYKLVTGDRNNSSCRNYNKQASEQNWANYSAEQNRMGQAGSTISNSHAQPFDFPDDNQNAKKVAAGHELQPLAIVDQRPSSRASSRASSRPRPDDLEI

Molecular target: GST-tagged Cx43CT (V236-I382), carboxyl terminal domain of connexin43 (rat) (UniProt P08050)
Assay: pull-down; GST-Cx43CT on glutathione beads, no cross-linker; Daudi or Jurkat cell lysate (1 mL, 2 mg/mL), 6 h at 4 °C; 50 mM HEPES pH 7.4, 150 mM NaCl, 1 mM DTT, 0.5% Triton X-100; Western blot with anti-BTK or anti-ITK; only the target purified

binding: binds
B1: Interleukin-2-inducible T-cell kinase (ITK) (enzyme, UniProt Q08881 1-620)
chain: MNNFILLEEQLIKKSQQKRRTSPSNFKVRFFVLTKASLAYFEDRHGKKRTLKGSIELSRIKCVEIVKSDISIPCHYKYPFQVVHDNYLLYVFAPDRESRQRWVLALKEETRNNNSLVPKYHPNFWMDGKWRCCSQLEKLATGCAQYDPTKNASKKPLPPTPEDNRRPLWEPEETVVIALYDYQTNDPQELALRRNEEYCLLDSSEIHWWRVQDRNGHEGYVPSSYLVEKSPNNLETYEWYNKSISRDKAEKLLLDTGKEGAFMVRDSRTAGTYTVSVFTKAVVSENNPCIKHYHIKETNDNPKRYYVAEKYVFDSIPLLINYHQHNGGGLVTRLRYPVCFGRQKAPVTAGLRYGKWVIDPSELTFVQEIGSGQFGLVHLGYWLNKDKVAIKTIREGAMSEEDFIEEAEVMMKLSHPKLVQLYGVCLEQAPICLVFEFMEHGCLSDYLRTQRGLFAAETLLGMCLDVCEGMAYLEEACVIHRDLAARNCLVGENQVIKVSDFGMTRFVLDDQYTSSTGTKFPVKWASPEVFSFSRYSSKSDVWSFGVLMWEVFSEGKIPYENRSNSEVVEDISTGFRLYKPRLASTHVYQIMNHCWKERPEDRPAFSRLLRQLAEIAESGL
